No constants are given. Whether binding was seen depends on the method and setting. Binding seen in cells or lysates may run through a third protein. A yes stands for co-enrichment or nearness to the bait. Other partners may have been found.

The chains behind the UniProt entries cited, without tags or fusion partners. Where a name states a change or a piece, a line headed by the entry shows the natural chain unless it says otherwise. A line that says so, or that is headed by a name, gives the form on record, which may keep a tag or linker.
GFP-tagged Zip, over-expressed from UAS-GFP-zip (Q99323, form named): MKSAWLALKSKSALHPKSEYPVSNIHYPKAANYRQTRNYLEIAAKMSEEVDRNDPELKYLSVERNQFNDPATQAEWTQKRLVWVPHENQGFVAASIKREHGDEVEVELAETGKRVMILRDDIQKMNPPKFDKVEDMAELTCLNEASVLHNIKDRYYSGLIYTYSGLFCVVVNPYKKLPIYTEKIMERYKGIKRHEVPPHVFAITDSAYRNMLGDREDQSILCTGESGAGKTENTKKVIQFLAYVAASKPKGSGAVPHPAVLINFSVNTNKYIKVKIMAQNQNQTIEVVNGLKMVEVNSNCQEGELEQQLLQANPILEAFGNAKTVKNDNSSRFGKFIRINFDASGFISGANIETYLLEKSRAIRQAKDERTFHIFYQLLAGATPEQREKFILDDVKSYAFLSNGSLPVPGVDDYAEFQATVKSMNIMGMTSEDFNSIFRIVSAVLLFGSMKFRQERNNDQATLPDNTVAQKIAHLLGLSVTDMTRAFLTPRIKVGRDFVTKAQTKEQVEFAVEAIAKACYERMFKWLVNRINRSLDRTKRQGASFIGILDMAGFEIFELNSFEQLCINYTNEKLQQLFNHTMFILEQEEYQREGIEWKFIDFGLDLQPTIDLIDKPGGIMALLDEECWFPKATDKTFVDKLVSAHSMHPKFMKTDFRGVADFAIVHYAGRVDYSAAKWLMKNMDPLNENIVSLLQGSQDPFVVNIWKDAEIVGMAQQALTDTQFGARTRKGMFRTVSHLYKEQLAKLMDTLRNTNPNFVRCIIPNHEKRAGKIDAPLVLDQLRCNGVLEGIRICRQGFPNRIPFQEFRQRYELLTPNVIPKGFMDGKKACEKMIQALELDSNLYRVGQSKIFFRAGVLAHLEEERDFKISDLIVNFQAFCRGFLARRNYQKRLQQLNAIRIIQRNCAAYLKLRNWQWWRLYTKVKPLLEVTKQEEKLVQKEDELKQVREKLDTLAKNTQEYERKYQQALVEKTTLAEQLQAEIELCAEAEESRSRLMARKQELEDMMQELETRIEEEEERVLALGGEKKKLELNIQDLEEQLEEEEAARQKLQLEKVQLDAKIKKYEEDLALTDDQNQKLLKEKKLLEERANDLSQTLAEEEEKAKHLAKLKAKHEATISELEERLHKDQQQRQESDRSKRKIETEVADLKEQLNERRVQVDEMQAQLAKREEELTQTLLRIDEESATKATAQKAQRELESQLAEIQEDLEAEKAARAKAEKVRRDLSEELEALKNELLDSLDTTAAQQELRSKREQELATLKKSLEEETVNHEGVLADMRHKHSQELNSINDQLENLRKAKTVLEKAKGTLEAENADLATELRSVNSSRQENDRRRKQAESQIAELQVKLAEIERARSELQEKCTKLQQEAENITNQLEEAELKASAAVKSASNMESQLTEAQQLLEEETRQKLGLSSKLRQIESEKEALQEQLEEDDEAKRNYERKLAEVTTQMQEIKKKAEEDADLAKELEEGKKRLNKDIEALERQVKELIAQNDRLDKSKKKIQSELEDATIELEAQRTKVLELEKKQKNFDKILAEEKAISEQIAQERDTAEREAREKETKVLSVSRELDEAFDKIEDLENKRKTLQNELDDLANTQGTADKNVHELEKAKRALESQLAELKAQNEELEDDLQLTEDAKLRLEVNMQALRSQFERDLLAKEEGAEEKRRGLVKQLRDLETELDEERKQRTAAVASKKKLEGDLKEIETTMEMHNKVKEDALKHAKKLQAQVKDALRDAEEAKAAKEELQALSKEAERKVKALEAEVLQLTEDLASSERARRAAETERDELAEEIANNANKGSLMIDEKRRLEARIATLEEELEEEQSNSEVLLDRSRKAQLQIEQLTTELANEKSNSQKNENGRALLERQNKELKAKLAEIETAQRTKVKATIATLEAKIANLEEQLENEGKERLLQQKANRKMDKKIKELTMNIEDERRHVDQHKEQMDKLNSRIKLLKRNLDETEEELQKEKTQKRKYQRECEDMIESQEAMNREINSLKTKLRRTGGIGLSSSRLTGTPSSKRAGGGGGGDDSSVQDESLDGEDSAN
UniProt P17210: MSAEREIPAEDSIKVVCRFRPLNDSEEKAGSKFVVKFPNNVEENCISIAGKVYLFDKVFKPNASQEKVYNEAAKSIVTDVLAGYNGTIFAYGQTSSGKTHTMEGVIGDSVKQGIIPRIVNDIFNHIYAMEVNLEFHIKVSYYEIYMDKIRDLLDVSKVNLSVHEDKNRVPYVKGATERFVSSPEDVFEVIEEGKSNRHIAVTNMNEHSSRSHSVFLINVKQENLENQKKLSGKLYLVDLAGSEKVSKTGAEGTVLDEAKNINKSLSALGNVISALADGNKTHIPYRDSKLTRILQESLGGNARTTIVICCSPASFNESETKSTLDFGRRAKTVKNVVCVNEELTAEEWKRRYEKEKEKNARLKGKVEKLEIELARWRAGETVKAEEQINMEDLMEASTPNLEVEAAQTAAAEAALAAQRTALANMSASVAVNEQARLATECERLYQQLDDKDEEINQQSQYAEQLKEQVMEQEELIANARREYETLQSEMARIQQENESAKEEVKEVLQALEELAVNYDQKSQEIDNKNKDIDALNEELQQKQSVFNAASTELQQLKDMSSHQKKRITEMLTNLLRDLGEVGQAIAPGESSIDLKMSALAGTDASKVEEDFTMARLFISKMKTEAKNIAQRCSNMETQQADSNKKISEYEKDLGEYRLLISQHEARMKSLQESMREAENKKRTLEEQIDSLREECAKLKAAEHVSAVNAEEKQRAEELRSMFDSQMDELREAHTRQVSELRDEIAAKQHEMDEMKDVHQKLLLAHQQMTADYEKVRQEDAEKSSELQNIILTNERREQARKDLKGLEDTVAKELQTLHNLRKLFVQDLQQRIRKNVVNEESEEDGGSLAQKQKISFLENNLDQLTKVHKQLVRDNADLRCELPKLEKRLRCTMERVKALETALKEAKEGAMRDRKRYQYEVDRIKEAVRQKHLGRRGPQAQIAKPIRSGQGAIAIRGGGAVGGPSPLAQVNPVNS
UniProt P29742: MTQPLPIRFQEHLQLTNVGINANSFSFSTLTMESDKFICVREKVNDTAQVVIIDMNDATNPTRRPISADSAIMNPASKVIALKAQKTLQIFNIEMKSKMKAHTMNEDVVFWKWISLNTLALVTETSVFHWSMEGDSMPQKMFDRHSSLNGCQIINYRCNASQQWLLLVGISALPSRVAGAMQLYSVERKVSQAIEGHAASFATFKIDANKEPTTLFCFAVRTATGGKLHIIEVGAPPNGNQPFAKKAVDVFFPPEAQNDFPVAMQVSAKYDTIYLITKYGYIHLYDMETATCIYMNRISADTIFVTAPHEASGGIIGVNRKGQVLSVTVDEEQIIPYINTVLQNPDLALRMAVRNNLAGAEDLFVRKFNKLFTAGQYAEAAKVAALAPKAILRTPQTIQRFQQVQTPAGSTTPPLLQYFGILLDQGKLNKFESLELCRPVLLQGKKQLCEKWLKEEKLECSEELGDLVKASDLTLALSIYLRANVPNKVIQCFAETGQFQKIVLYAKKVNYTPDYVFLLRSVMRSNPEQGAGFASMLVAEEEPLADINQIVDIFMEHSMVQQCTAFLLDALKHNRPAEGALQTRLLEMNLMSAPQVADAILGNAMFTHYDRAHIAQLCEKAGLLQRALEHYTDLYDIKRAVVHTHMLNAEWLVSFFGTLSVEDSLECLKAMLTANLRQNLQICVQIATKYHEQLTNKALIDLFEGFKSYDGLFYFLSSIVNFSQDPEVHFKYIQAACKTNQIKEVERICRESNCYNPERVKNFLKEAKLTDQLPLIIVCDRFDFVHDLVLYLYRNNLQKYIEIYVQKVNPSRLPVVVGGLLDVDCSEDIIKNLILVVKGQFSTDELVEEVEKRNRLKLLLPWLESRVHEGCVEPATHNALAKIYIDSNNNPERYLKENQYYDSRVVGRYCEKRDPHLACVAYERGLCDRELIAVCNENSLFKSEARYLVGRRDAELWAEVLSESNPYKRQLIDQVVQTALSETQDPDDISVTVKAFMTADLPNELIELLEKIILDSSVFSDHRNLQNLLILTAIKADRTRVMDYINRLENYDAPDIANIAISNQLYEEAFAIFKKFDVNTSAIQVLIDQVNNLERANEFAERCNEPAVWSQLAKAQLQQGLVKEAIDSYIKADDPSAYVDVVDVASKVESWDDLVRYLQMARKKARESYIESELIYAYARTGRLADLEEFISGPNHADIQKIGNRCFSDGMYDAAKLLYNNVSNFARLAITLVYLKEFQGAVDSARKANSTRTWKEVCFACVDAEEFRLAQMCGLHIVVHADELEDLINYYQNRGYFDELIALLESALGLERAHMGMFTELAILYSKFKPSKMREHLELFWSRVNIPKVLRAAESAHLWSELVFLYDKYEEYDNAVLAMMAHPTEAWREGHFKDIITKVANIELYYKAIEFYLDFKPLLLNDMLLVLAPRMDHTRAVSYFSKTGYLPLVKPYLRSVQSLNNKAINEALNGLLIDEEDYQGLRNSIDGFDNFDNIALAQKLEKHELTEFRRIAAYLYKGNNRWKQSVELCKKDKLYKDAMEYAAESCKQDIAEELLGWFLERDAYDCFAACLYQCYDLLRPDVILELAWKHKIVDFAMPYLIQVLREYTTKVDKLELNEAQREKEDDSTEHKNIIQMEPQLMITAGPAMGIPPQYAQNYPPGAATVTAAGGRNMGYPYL

These results are taken from paper PMC11039529.

This assay addresses GFP-tagged Zip, over-expressed from UAS-GFP-zip (Drosophila) (UniProt Q99323). Nature of the assay: affinity purification with mass spectrometry; anti-GFP immunoprecipitation from GFP-Zip over-expression lysate; in-solution trypsin digestion; high-resolution mass spectrometry (Orbitrap Eclipse Tribrid); sequence score > 40.

For the molecule “Kinesin heavy chain (from UniProt P17210 1-975)”, the binding entry was “binds”.

Turning to “Clathrin heavy chain (from UniProt P29742 1-1678)”, the binding entry was “binds”.

B1: AP-2 complex subunit alpha (protein, UniProt P91926 1-940)
chain: MAPVRGDGMRGLAVFISDIRNCKSKEAEVKRINKELANIRSKFKGDKTLDGYQKKKYVCKLLFIFLLGHDIDFGHMEAVNLLSSNKYSEKQIGYLFISVLVNTNSDLIRLIIQSIKNDLQSRNPVHVNLALQCIANIGSRDMAESFSNEIPKLLVSGDTMDVVKQSAALCLLRLFRSSPDIIPGGEWTSRIIHLLNDQHMGVVTAATSLIDALVKRNPDEYKGCVNLAVSRLSRIVTASYTDLQDYTYYFVPAPWLSVKLLRLLQNYNPVTEEAGVRARLNETLETILNKAQEPPKSKKVQHSNAKNAVLFEAINLIIHSDSEPNLLVRACNQLGQFLSNRETNLRYLALESMCHLATSEFSHEEVKKHQEVVILSMKMEKDVSVRQMAVDLLYAMCDRGNAEEIVQEMLNYLETADYSIREEMVLKVAILAEKYATDYTWYVDVILNLIRIAGDYVSEEVWYRVIQIVINREEVQGYAAKTVFEALQAPACHENMVKVGGYILGEFGNLIAGDSRSAPLVQFKLLHSKYHLCSPMTRALLLSTYIKFINLFPEIRTNIQDVFRQHSNLRSADAELQQRASEYLQLSIVASTDVLATVLEEMPSFPERESSILAVLKKKKPGRVPENEIRESKSPAPLTSAAQNNALVNNSHSKLNNSNANTDLLGLSTPPSNNIGSGSNSNSTLIDVLGDMYGSNSNNNSSAVYNTKKFLFKNNGVLFENEMLQIGVKSEFRQNLGRLGLFYGNKTQVPLTNFNPVLQWSAEDALKLNVQMKVVEPTLEAGAQIQQLLTAECIEDYADAPTIEISFRYNGTQQKFSIKLPLSVNKFFEPTEMNAESFFARWKNLSGEQQRSQKVFKAAQPLDLPGARNKLMGFGMQLLDQVDPNPDNMVCAGIIHTQSQQVGCLMRLEPNKQAQMFRLTVRASKETVTREICDLLTDQF
In the case of B1, the binding result is on record as “binds”.

B2: Ras-related protein Rab 3 (protein, UniProt P25228 1-220)
chain: MASGGDPKWQKDAADQNFDYMFKLLIIGNSSVGKTSFLFRYADDSFTSAFVSTVGIDFKVKTVFRHDKRVKLQIWDTAGQERYRTITTAYYRGAMGFILMYDVTNEDSFNSVQDWVTQIKTYSWDNAQVILVGNKCDMEDQRVISFERGRQLADQLGVEFFETSAKENVNVKAVFERLVDIICDKMSESLDADPTLVGGGQKGQRLTDQPQGTPNANCNC
Turning to B2, the binding entry is recorded as “binds”.

B3: Dynamin (protein, UniProt P27619 1-877)
chain: MDSLITIVNKLQDAFTSLGVHMQLDLPQIAVVGGQSAGKSSVLENFVGKDFLPRGSGIVTRRPLILQLINGVTEYGEFLHIKGKKFSSFDEIRKEIEDETDRVTGSNKGISNIPINLRVYSPHVLNLTLIDLPGLTKVAIGDQPVDIEQQIKQMIFQFIRKETCLILAVTPANTDLANSDALKLAKEVDPQGVRTIGVITKLDLMDEGTDARDILENKLLPLRRGYIGVVNRSQKDIEGRKDIHQALAAERKFFLSHPSYRHMADRLGTPYLQRVLNQQLTNHIRDTLPGLRDKLQKQMLTLEKEVEEFKHFQPGDASIKTKAMLQMIQQLQSDFERTIEGSGSALVNTNELSGGAKINRIFHERLRFEIVKMACDEKELRREISFAIRNIHGIRVGLFTPDMAFEAIVKRQIALLKEPVIKCVDLVVQELSVVVRMCTAKMSRYPRLREETERIITTHVRQREHSCKEQILLLIDFELAYMNTNHEDFIGFANAQNKSENANKTGTRQLGNQVIRKGHMVIQNLGIMKGGSRPYWFVLTSESISWYKDEDEKEKKFMLPLDGLKLRDIEQGFMSMSRRVTFALFSPDGRNVYKDYKQLELSCETVEDVESWKASFLRAGVYPEKQETQENGDESASEESSSDPQLERQVETIRNLVDSYMKIVTKTTRDMVPKAIMMLIINNAKDFINGELLAHLYASGDQAQMMEESAESATRREEMLRMYRACKDALQIIGDVSMATVSSPLPPPVKNDWLPSGLDNPRLSPPSPGGVRGKPGPPAQSSLGGRNPPLPPSTGRPAPAIPNRPGGGAPPLPGGRPGGSLPPPMLPSRVSGAVGGAIVQQSGANRYVPESMRGQVNQAVGQAAINELSNAFSSRFK
B3: the binding result is recorded as “binds”.
